Data taken from the supplement of paper PMC10849652.
The other results are listed elsewhere or left out.

Chains of the proteins cited; added tags and fusions are not shown. Lines headed by an entry give the natural chain unless they say otherwise; changes in a name come on top.
UniProt P0DMM9: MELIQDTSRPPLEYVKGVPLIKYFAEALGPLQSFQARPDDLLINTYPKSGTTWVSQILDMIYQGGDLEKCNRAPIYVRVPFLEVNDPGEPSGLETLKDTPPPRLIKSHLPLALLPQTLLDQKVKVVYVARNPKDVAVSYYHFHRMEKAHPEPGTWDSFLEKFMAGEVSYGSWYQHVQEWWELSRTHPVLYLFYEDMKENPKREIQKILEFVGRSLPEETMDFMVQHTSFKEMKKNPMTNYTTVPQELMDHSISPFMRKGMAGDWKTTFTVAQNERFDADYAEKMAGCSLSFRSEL
UniProt Q9Y2Z0: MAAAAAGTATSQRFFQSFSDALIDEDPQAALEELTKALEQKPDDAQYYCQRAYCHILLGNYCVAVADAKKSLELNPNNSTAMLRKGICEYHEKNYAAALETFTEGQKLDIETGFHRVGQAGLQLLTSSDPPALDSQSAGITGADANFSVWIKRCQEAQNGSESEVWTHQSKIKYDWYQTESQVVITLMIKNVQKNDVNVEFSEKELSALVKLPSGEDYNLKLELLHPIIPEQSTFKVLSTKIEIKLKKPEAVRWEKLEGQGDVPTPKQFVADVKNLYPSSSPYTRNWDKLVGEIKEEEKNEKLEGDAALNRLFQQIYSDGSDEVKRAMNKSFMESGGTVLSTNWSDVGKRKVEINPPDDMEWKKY
UniProt Q92804: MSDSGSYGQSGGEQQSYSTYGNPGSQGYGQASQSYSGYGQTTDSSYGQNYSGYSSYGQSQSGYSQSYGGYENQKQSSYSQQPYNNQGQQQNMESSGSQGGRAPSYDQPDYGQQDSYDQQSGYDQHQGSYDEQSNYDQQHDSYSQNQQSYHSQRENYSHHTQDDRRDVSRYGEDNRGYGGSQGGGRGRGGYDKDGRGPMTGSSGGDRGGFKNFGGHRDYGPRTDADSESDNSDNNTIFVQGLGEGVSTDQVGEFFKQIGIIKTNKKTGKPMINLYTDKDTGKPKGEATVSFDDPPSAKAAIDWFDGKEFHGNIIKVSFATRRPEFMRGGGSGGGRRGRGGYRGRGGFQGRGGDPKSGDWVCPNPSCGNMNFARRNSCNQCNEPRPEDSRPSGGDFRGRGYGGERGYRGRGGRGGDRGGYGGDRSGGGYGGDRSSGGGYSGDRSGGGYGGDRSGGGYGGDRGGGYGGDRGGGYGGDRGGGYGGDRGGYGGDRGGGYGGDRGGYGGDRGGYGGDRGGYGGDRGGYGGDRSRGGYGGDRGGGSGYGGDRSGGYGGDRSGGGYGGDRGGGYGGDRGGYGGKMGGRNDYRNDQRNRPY
UniProt P61764, whole entry, looked up: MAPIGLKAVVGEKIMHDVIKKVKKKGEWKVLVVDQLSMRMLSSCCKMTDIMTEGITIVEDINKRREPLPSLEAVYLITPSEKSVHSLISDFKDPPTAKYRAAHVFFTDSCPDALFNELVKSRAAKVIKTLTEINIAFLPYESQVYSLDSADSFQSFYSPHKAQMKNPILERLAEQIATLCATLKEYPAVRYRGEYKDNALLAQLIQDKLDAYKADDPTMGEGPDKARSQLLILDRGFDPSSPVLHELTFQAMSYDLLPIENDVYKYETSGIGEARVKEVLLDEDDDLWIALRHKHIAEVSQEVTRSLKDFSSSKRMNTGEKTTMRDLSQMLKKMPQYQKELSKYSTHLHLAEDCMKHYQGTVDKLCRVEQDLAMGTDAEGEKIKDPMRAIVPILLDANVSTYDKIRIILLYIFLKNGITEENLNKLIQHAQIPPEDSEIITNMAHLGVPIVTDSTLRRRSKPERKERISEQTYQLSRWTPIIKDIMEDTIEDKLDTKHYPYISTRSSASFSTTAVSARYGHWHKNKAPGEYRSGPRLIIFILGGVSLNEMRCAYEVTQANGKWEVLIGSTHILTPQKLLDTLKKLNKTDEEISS
UniProt Q9UBS9: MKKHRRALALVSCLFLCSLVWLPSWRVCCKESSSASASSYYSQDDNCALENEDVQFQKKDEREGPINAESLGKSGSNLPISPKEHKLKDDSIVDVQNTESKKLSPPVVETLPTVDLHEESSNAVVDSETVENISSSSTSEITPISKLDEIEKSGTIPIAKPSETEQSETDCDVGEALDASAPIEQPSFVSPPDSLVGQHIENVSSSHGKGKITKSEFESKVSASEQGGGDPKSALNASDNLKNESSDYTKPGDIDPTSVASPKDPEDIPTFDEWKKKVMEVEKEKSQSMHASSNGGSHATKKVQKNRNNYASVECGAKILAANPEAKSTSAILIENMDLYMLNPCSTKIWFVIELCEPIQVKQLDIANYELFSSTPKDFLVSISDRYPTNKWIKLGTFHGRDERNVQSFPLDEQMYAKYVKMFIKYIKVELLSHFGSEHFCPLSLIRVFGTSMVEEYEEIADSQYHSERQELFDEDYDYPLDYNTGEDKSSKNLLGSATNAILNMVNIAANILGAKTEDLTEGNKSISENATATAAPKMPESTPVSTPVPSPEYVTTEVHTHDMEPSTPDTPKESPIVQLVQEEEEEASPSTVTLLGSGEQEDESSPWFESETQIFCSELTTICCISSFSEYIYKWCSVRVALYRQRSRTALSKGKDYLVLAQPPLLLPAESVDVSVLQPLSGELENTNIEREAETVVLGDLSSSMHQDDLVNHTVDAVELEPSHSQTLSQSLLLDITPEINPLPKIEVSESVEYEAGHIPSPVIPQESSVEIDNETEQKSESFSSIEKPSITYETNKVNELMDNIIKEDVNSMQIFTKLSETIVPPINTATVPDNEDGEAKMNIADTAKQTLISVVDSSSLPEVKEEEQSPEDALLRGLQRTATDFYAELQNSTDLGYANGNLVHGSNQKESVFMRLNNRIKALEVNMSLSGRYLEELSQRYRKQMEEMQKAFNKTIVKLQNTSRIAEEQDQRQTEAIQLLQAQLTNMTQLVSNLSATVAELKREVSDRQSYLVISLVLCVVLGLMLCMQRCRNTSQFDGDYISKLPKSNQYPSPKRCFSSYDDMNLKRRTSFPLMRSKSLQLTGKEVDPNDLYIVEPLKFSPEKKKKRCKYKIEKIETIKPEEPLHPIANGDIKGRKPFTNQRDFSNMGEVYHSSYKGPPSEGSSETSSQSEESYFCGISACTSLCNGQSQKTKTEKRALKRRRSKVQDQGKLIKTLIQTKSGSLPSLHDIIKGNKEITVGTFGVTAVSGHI
UniProt Q9P2R7: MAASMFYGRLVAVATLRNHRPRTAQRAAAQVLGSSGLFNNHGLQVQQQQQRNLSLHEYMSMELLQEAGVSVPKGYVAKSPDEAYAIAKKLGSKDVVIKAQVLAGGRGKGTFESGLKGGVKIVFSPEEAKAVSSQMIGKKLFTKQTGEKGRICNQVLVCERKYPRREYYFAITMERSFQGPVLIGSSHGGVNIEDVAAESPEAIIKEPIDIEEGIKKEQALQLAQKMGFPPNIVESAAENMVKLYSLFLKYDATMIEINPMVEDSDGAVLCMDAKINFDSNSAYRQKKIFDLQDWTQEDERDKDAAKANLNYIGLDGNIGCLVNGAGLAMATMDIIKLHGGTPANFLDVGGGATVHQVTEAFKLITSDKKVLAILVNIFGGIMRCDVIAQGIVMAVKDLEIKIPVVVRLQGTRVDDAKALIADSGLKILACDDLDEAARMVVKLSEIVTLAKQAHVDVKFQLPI
UniProt Q8NBK3: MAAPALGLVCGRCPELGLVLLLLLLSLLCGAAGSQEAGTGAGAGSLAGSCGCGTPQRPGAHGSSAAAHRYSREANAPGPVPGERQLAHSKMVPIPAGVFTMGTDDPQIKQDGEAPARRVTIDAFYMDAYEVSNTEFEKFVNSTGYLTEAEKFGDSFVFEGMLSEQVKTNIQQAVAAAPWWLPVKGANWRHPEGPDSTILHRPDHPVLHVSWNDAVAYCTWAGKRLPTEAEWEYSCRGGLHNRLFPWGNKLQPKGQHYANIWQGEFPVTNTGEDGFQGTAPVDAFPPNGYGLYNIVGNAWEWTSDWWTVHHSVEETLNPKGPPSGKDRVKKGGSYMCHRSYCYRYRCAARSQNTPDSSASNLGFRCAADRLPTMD
UniProt Q12962, whole entry, looked up: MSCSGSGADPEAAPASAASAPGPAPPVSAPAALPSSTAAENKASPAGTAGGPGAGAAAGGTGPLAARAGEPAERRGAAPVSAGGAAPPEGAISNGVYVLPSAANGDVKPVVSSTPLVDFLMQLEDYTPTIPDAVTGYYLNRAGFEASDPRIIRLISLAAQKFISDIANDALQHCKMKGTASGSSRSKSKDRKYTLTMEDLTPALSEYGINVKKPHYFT
UniProt Q9P2W9: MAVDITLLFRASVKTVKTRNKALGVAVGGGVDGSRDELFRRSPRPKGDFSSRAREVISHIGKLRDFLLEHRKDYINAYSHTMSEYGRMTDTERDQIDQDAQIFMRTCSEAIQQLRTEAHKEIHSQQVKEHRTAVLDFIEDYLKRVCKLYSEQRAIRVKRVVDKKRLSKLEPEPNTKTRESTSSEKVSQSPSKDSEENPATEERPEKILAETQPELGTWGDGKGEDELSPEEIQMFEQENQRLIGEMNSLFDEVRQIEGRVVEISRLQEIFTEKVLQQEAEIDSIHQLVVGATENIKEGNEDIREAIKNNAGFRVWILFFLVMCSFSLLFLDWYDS
UniProt Q13033: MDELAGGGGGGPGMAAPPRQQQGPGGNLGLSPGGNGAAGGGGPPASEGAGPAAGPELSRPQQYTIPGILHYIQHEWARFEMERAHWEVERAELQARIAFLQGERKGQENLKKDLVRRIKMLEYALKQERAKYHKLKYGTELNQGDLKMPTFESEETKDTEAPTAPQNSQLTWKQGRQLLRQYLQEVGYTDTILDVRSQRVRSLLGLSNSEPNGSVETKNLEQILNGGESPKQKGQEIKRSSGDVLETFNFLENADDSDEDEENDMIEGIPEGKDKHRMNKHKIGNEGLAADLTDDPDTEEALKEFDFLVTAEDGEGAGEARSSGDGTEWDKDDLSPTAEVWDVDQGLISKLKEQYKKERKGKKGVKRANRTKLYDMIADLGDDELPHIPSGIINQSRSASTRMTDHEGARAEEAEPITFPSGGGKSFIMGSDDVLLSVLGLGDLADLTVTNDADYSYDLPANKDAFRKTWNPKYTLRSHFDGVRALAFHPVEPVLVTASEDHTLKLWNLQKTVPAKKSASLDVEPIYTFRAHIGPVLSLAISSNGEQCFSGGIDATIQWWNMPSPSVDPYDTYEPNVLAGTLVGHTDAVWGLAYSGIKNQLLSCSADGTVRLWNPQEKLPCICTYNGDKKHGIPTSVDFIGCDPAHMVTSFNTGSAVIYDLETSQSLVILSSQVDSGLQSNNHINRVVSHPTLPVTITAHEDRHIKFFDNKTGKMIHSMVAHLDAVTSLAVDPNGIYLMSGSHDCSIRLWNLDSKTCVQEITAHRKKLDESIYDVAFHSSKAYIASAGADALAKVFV
UniProt O43815: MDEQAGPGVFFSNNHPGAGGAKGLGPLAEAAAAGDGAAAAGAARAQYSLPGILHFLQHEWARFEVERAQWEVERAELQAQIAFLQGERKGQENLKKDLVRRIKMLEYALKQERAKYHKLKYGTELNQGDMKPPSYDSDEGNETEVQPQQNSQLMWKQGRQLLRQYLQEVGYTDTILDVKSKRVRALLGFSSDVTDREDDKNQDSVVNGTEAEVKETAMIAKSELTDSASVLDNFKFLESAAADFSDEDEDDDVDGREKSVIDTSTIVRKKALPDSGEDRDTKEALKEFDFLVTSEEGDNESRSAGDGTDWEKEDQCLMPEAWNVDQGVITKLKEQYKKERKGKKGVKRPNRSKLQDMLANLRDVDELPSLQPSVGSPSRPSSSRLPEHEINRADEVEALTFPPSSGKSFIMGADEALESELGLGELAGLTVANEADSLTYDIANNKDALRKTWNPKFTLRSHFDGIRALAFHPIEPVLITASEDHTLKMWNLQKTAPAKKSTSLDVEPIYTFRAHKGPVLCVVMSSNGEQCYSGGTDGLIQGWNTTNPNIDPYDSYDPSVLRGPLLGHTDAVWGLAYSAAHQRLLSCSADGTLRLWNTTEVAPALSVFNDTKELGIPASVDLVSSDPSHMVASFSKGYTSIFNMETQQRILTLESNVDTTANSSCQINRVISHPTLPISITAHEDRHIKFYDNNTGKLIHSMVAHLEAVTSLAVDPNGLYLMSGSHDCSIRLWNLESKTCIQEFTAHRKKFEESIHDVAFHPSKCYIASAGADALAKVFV
UniProt O15400: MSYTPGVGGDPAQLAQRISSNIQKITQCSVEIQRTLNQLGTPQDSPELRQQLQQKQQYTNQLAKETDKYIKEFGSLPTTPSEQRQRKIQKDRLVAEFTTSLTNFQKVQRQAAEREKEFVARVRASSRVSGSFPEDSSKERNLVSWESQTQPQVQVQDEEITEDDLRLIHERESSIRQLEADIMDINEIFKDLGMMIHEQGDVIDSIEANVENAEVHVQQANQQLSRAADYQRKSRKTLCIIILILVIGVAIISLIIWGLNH
UniProt Q16594, whole entry, looked up: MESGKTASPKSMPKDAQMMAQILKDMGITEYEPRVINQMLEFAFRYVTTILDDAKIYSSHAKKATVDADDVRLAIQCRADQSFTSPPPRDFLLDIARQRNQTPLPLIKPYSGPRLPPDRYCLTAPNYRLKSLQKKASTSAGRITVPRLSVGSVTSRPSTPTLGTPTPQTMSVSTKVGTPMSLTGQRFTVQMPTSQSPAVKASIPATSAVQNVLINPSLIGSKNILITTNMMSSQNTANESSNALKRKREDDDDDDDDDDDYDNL

Tests used:
Experiment in all cases: log2 fold change, soluble protein after heating vs DMSO (PISA); higher = thermal stabilisation; K562 cells, 10 uM, 30 min; active = over 0.2 and 3.5 SD of the protein, either way, in both replicates (recomputed)
[1] = compound: CC1=C(C=C(C=C1)NC(=O)C2=CC(=CC=C2)C(C)(C)C#N)NC3=CC4=C(C=C3)N=CN(C4=O)C
Outline: (§1)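 K562 cells at 2×10^6 cells/mL were exposed to 10 μM compound for 30 min, then aliquots were heated for 3 min across 48°C-58°C, pooled, and extracted in PBS containing 0.5% NP-40 at 4°C. The supernatant after 21,000xg for 90 min was taken as soluble protein and measured by TMTpro 16plex LC-MS/MS with channel sums equalised. Thermal stability is reported relative to control samples, with values from duplicates. Fold changes are given on a log2 scale.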

[2] = compound: CC1=C(C=C(C=C1)NC(=O)C2=CC(=CC=C2)N(C)C)NC(=O)C3=CC=C(C=C3)O
Outline: as §1

[3] = compound: CC1=CC=C(C=C1)SC2=C3C=C(SC3=CN=C2)C(=O)N
Outline: as §1

[4] = compound: CC1=NC(=CC=C1)C2=C(N=C(N2)C(C)(C)C)C3=CC4=NC=CN=C4C=C3
Outline: as §1

[5] = compound: CCCCN(Cc1ccc(C(=O)NO)cc1)C(=O)Nc1ccccc1 [Nexturastat A]
Outline: as §1

[6] = compound: CCCS(=O)(=O)Nc1ccc(F)c(C(=O)c2c[nH]c3ncc(-c4ccc(Cl)cc4)cc23)c1F [vemurafenib]
Outline: as §1

[7] = compound: CCCS(=O)(=O)Nc1ccc(F)c(C(=O)c2c[nH]c3ncc(Cl)cc23)c1F
Outline: as §1

[8] = compound: CCCc1cc(C)[nH]c(=O)c1CNC(=O)c1cc(-c2ccnc(N3CCN(C)CC3)c2)cc2c1cnn2C(C)C
Outline: as §1

[9] = compound: CCN(CC)Cc1ccc2cc(COC(=O)Nc3ccc(C(=O)NO)cc3)ccc2c1 [givinostat]
Outline: as §1

[10] = compound: CCN(CCCOc1ccc2c(Nc3cc(CC(=O)Nc4cccc(F)c4)[nH]n3)ncnc2c1)CCOP(=O)(O)O [barasertib]
Outline: as §1

Measured: log2 fold change

TARBP1 (UniProt Q13395)
inactive: [1] 0.069 | [2] 0.001 | [3] 0.002 | [4] -0.01 | [5] 0.016 | [6] 0.036 | [7] -0.062 | [8] -0.067 | [9] -0.017 | [10] 0.023

SULT1A3 isoform 3 (UniProt P0DMM9)
inactive: [1] -0.012 | [2] -0.038 | [3] 0.164 | [4] 0.022 | [5] 0.07 | [6] 0.048 | [7] -0.027 | [8] 0.154 | [9] -0.015 | [10] 0.051

SYNCRIP (UniProt O60506)
inactive: [1] 0.018 | [2] 0.029 | [3] -0.047 | [4] -0.035 | [5] 0.128 | [6] -0.038 | [7] -0.038 | [8] 0.063 | [9] 0.012 | [10] -0.113

SUGP1 (UniProt Q8IWZ8)
inactive: [1] -0.006 | [2] -0.021 | [3] 0.033 | [4] 0.065 | [5] 0.056 | [6] 0.121 | [7] 0.096 | [8] -0.001 | [9] 0.095 | [10] 0.068

SUMF2 (UniProt Q8NBJ7)
inactive: [1] 0.002 | [2] 0.003 | [3] 0.028 | [4] -0.027 | [5] 0.004 | [6] 0.031 | [7] -0.048 | [8] -0.054 | [9] -0.041 | [10] -0.008

SUMO1 (UniProt P63165)
inactive: [1] -0.064 | [2] -0.045 | [3] 0.4 | [4] 0.024 | [5] -0.142 | [6] -0.051 | [8] -0.071 | [9] -0.172 | [10] -0.055
active: [7] 0.657

STX5 (UniProt Q13190)
inactive: [1] -0.035 | [2] -0.005 | [3] 0.072 | [4] -0.019 | [5] 0.016 | [6] 0.015 | [7] 0.139 | [8] 0.062 | [9] 0.059 | [10] 0.117

STXBP3 (UniProt O00186)
inactive: [1] 0.038 | [2] -0.059 | [3] 0.013 | [4] 0.047 | [5] 0.064 | [6] 0.089 | [7] 0.087 | [8] 0.014 | [9] 0.062 | [10] 0.067

SUGT1 (UniProt Q9Y2Z0)
inactive: [1] -0.007 | [2] -0.016 | [3] 0.021 | [4] 0.025 | [5] -0.076 | [6] 0.029 | [7] 0.028 | [8] -0.013 | [9] -0.025 | [10] 0.007

TAF15 (UniProt Q92804)
inactive: [1] -0.008 | [2] 0.046 | [3] -0.016 | [4] 0.022 | [5] 0.086 | [6] 0 | [7] 0.004 | [8] -0.102 | [9] -0.076 | [10] -0.144

STXBP1 (UniProt P61764)
inactive: [1] 0.025 | [2] -0.033 | [3] -0.003 | [4] 0.081 | [5] -0.142 | [6] 0.09 | [7] 0.14 | [8] 0.139 | [9] 0.111 | [10] 0.031

SUCO (UniProt Q9UBS9)
inactive: [1] -0.018 | [2] -0.08 | [3] 0.001 | [4] 0.046 | [5] 0.138 | [6] -0.244 | [7] -0.014 | [8] 0.533 | [9] 0.184

SUCLG2 (UniProt Q96I99)
inactive: [1] -0.012 | [2] 0.02 | [3] 0.013 | [4] 0.048 | [5] -0.062 | [6] 0.031 | [7] 0.01 | [8] 0.012 | [9] 0.023 | [10] 0.01

SUN2 (UniProt Q9UH99)
inactive: [1] 0.023 | [2] 0.001 | [3] -0.017 | [4] -0.025 | [5] 0.005 | [6] -0.026 | [7] 0.015 | [8] 0.013 | [9] 0.005 | [10] -0.012

TACO1 (UniProt Q9BSH4)
inactive: [1] 0.091 | [2] -0.156 | [3] 0.249 | [4] 0.056 | [5] -0.186 | [6] 0.066 | [7] 0.225 | [8] 0.207 | [9] 0.089 | [10] 0.137

TARSL2 (UniProt A2RTX5)
inactive: [1] 0.015 | [2] -0.034 | [3] 0.003 | [4] -0.065 | [5] -0.01 | [6] -0.004 | [7] -0.005 | [8] 0.007 | [9] -0.028 | [10] 0.041

SUCLA2 (UniProt Q9P2R7)
inactive: [1] -0.038 | [2] -0.018 | [3] 0.003 | [4] 0.06 | [5] -0.083 | [6] 0.047 | [7] 0.008 | [8] -0.02 | [9] -0.003 | [10] 0.064

STMN3 (UniProt Q9NZ72)
inactive: [1] 0.055 | [2] -0.092 | [3] -0.014 | [4] 0.048 | [5] 0.107 | [6] 0.007 | [7] -0.064 | [8] -0.018 | [9] 0 | [10] 0.017

TAX1BP1 (UniProt Q86VP1)
inactive: [1] 0.031 | [2] -0.005 | [3] -0.014 | [4] -0.026 | [5] -0.014 | [6] -0.003 | [7] 0.011 | [8] -0.055 | [9] -0.033 | [10] -0.061

TARDBP (UniProt Q13148)
inactive: [1] -0.014 | [2] -0.03 | [3] -0.004 | [4] -0.109 | [5] 0.108 | [6] 0.058 | [7] 0.06 | [8] 0.103 | [9] 0.033 | [10] 0.087

SUMF1 isoform 3 (UniProt Q8NBK3)
inactive: [1] 0.01 | [2] 0.136 | [3] 0.002 | [4] -0.089 | [5] -0.081 | [6] 0.07 | [7] -0.068 | [8] 0.115 | [9] -0.251

TAF10 (UniProt Q12962)
inactive: [1] 0.072 | [2] -0.034 | [3] -0.004 | [4] 0.066 | [5] -0.062 | [6] 0.079 | [7] 0.035 | [8] 0.008 | [9] -0.114 | [10] -0.037

STX18 (UniProt Q9P2W9)
inactive: [1] -0.054 | [2] -0.056 | [3] 0.042 | [4] -0.009 | [5] 0.024 | [6] 0.001 | [7] 0.024 | [8] 0.05 | [9] 0.038 | [10] 0.036

STX8 (UniProt Q9UNK0)
inactive: [1] -0.032 | [2] -0.024 | [3] 0.023 | [4] 0.03 | [5] -0.141 | [6] 0.005 | [7] -0.02 | [8] 0.031 | [9] 0.023 | [10] -0.051

STRN3 (UniProt Q13033)
inactive: [1] -0.002 | [2] -0.021 | [3] 0.05 | [4] 0.02 | [5] -0.018 | [6] -0.019 | [7] 0.067 | [8] -0.036 | [9] -0.048 | [10] 0.028

TARBP2 (UniProt Q15633)
inactive: [1] -0.199 | [2] -0.039 | [3] -0.052 | [4] -0.058 | [5] 0.255 | [6] -0.036 | [7] -0.095 | [8] -0.005 | [9] -0.053 | [10] 0.003

SUOX (UniProt P51687)
active: [4] -0.334
inactive: [1] -0.012 | [2] -0.002 | [3] -0.007 | [5] -0.021 | [6] -0.046 | [7] -0.051 | [8] 0.023 | [9] -0.033 | [10] 0.007

STRN (UniProt O43815)
inactive: [1] -0.019 | [2] -0.046 | [3] 0.019 | [4] -0.024 | [5] 0.001 | [6] 0.073 | [7] 0.035 | [8] -0.038 | [9] 0.002 | [10] 0.045

STX7 (UniProt O15400)
inactive: [1] -0.003 | [2] 0.025 | [3] -0.002 | [4] 0.055 | [5] -0.023 | [6] -0.036 | [7] 0 | [8] 0 | [9] -0.002 | [10] -0.02

8 consecutive records from above, for reference:
TARDBP (UniProt Q13148)
inactive: [1] -0.014 | [2] -0.03 | [3] -0.004 | [4] -0.109 | [5] 0.108 | [6] 0.058 | [7] 0.06 | [8] 0.103 | [9] 0.033 | [10] 0.087

SUMF1 isoform 3 (UniProt Q8NBK3)
inactive: [1] 0.01 | [2] 0.136 | [3] 0.002 | [4] -0.089 | [5] -0.081 | [6] 0.07 | [7] -0.068 | [8] 0.115 | [9] -0.251

TAF10 (UniProt Q12962)
inactive: [1] 0.072 | [2] -0.034 | [3] -0.004 | [4] 0.066 | [5] -0.062 | [6] 0.079 | [7] 0.035 | [8] 0.008 | [9] -0.114 | [10] -0.037

STX18 (UniProt Q9P2W9)
inactive: [1] -0.054 | [2] -0.056 | [3] 0.042 | [4] -0.009 | [5] 0.024 | [6] 0.001 | [7] 0.024 | [8] 0.05 | [9] 0.038 | [10] 0.036

STX8 (UniProt Q9UNK0)
inactive: [1] -0.032 | [2] -0.024 | [3] 0.023 | [4] 0.03 | [5] -0.141 | [6] 0.005 | [7] -0.02 | [8] 0.031 | [9] 0.023 | [10] -0.051

STRN3 (UniProt Q13033)
inactive: [1] -0.002 | [2] -0.021 | [3] 0.05 | [4] 0.02 | [5] -0.018 | [6] -0.019 | [7] 0.067 | [8] -0.036 | [9] -0.048 | [10] 0.028

TARBP2 (UniProt Q15633)
inactive: [1] -0.199 | [2] -0.039 | [3] -0.052 | [4] -0.058 | [5] 0.255 | [6] -0.036 | [7] -0.095 | [8] -0.005 | [9] -0.053 | [10] 0.003

SUOX (UniProt P51687)
active: [4] -0.334
inactive: [1] -0.012 | [2] -0.002 | [3] -0.007 | [5] -0.021 | [6] -0.046 | [7] -0.051 | [8] 0.023 | [9] -0.033 | [10] 0.007

The results go on:

TAF9 (UniProt Q16594)
inactive: [1] 0.125 | [2] -0.007 | [3] -0.092 | [4] 0.018 | [5] 0 | [6] -0.017 | [7] -0.097 | [8] 0.02 | [9] 0.019 | [10] -0.019
